Strings that start with PEPTIDE1 are HELM notation: dots part the residues, brackets hold end groups and non-standard residues.
Assays:
[1] = general procedure: Fmoc solid-phase peptide synthesis; resin for solid-phase synthesis; settings: whole synthesis, 220 nm
[2] = general procedure: Fmoc solid-phase peptide synthesis; 4-methylbenzhydrylamine resin; settings: whole synthesis, reversed phase HPLC, absorbance at 220 nm

Substance	final HPLC purity [1]	final purity (method not given) [2]
PEPTIDE1{L.E.H.A}$$$$V2.0	99%	
PEPTIDE1{L.E.H.A.[am]}$$$$V2.0		94.0%

Reference: patent publication US7989590B2 (Rohto Pharmaceutical Co., Ltd, priority 2005, dated 2011)
